These are yes or no findings as the source states them, for the method shown. Where a sequence is shown, tags or fusion partners need not be part of it.

The target in the assay is T1, Orange Carotenoid Protein, wildtype, His6-tagged, Synechocystis (OCP^WT) (Synechocystis), P74102.
T1 chain: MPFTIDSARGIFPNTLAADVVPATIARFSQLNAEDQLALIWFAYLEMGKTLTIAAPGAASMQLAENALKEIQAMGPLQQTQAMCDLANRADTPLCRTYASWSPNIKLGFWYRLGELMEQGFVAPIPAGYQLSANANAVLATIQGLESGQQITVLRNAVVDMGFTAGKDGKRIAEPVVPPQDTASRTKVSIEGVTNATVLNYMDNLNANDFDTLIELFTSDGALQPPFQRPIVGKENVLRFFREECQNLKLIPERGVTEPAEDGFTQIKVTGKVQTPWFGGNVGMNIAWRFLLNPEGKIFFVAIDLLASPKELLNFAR
The experiment in a line: cross-linking. The following applies: remark: other sources report otherwise.

B1: Orange Carotenoid Protein, wildtype, His6-tagged, Synechocystis (OCP^WT), P74102 1-317 (protein)
chain: MPFTIDSARGIFPNTLAADVVPATIARFSQLNAEDQLALIWFAYLEMGKTLTIAAPGAASMQLAENALKEIQAMGPLQQTQAMCDLANRADTPLCRTYASWSPNIKLGFWYRLGELMEQGFVAPIPAGYQLSANANAVLATIQGLESGQQITVLRNAVVDMGFTAGKDGKRIAEPVVPPQDTASRTKVSIEGVTNATVLNYMDNLNANDFDTLIELFTSDGALQPPFQRPIVGKENVLRFFREECQNLKLIPERGVTEPAEDGFTQIKVTGKVQTPWFGGNVGMNIAWRFLLNPEGKIFFVAIDLLASPKELLNFAR
B1: the binding entry was “no binding (tested: 8.1 μM)”.

These data come from article doi:10.1101/116491 (bioRxiv, 2017).
